From the supplement of paper PMC10849652
The list shows a part of the results.

Sequences of proteins named here, by UniProt entry; tags and fusion partners are left off. A change or cut given only in a name is not applied to a line headed by its entry.
UniProt Q96IG2: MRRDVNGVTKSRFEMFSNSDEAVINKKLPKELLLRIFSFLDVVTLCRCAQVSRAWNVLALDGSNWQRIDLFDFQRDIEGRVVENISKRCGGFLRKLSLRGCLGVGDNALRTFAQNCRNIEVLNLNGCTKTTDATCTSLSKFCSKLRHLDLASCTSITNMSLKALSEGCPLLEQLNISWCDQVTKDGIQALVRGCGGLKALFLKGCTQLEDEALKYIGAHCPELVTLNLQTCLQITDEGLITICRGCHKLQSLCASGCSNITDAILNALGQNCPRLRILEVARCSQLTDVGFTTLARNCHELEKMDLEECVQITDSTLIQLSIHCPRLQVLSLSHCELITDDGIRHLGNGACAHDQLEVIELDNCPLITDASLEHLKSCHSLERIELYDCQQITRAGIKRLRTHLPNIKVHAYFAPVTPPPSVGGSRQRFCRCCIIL
UniProt Q8N3X1: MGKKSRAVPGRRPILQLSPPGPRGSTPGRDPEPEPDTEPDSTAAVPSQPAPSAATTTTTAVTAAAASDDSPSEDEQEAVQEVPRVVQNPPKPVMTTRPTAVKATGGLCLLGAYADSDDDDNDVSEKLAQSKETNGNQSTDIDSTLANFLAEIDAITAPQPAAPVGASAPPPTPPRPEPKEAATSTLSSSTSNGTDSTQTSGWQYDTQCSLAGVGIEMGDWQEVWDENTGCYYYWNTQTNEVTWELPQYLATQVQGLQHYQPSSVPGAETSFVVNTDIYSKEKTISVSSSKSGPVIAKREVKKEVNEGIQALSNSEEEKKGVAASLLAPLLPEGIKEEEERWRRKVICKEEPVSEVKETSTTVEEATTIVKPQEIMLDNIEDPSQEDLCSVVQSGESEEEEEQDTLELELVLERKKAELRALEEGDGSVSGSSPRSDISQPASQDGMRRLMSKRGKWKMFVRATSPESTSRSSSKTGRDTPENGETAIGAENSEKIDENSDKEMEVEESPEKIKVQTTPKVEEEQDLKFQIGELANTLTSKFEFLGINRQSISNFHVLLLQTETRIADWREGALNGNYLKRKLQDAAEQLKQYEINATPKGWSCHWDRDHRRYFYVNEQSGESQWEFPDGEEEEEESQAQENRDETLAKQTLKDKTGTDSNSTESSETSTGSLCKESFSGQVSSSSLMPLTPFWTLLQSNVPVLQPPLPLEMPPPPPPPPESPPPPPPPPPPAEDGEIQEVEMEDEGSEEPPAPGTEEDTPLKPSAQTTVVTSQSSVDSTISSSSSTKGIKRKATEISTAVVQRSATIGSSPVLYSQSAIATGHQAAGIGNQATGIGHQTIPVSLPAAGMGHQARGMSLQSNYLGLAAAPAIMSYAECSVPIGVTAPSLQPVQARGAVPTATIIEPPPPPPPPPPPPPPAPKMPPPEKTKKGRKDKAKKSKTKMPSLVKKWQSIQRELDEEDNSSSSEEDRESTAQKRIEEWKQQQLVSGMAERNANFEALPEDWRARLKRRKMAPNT
UniProt Q6PIW4: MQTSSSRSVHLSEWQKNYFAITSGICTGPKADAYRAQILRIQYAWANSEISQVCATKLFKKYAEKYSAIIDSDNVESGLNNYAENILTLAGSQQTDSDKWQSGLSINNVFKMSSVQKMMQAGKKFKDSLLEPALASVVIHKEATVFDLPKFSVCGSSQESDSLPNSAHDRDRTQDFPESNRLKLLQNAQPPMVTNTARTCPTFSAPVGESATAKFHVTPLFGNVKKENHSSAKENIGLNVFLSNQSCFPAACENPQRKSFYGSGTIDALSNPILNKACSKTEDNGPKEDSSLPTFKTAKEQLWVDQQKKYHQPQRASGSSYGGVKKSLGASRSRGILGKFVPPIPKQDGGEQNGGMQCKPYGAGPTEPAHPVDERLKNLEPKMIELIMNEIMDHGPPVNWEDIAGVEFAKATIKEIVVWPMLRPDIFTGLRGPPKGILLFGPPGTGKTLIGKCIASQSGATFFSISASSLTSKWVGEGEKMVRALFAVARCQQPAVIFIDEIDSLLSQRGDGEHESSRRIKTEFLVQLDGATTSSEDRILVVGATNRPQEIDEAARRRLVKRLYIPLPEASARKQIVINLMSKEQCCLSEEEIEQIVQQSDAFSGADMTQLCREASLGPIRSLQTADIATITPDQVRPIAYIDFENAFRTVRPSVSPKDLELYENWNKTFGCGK
UniProt Q9NYY8: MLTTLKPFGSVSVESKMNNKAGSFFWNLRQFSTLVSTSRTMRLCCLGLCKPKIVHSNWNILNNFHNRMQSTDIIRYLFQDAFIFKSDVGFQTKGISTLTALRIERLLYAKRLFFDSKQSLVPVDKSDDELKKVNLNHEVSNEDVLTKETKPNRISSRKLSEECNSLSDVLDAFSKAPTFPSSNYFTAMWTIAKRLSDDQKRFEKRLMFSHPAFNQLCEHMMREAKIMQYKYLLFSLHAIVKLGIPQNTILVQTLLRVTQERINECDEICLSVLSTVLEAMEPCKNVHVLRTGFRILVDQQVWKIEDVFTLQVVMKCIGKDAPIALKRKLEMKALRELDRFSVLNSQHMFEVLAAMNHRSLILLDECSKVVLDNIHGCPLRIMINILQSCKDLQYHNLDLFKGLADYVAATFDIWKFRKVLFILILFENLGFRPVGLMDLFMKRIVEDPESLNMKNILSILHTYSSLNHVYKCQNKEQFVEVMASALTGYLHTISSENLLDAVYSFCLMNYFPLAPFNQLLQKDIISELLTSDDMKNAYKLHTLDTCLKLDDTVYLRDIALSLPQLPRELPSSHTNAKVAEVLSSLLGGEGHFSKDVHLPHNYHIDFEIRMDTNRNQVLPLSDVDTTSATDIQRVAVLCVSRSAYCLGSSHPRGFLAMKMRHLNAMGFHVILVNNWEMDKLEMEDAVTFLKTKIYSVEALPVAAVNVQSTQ
UniProt Q9UK97: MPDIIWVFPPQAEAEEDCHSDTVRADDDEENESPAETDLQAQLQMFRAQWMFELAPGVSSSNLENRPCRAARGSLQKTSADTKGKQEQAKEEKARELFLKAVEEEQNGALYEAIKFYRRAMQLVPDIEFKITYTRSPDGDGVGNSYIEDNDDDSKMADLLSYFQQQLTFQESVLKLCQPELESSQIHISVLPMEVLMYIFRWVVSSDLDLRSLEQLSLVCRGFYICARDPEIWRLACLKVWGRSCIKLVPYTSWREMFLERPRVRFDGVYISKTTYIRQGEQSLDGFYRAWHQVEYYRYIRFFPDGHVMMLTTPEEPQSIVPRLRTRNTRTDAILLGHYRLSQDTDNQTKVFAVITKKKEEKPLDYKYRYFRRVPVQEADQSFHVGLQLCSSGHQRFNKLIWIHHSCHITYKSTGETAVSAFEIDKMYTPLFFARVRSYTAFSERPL
UniProt Q9NVK5: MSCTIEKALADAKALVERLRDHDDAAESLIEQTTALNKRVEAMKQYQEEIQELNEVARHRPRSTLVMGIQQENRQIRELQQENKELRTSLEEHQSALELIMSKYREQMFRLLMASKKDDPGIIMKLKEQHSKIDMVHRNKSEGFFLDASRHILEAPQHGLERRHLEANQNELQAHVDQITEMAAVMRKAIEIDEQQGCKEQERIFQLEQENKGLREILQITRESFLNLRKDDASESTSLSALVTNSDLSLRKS
UniProt P22830: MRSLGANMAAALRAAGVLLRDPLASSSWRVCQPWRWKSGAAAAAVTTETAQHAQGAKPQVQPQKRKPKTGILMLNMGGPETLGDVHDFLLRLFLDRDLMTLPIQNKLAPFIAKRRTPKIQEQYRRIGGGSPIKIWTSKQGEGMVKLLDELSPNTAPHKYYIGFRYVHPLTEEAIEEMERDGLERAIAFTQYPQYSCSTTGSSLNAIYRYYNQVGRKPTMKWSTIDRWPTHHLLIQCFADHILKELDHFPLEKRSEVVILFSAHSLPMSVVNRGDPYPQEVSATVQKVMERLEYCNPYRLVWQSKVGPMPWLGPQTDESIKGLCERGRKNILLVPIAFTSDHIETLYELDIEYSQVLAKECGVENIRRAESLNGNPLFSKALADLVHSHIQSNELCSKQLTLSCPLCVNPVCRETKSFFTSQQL
UniProt Q0JRZ9: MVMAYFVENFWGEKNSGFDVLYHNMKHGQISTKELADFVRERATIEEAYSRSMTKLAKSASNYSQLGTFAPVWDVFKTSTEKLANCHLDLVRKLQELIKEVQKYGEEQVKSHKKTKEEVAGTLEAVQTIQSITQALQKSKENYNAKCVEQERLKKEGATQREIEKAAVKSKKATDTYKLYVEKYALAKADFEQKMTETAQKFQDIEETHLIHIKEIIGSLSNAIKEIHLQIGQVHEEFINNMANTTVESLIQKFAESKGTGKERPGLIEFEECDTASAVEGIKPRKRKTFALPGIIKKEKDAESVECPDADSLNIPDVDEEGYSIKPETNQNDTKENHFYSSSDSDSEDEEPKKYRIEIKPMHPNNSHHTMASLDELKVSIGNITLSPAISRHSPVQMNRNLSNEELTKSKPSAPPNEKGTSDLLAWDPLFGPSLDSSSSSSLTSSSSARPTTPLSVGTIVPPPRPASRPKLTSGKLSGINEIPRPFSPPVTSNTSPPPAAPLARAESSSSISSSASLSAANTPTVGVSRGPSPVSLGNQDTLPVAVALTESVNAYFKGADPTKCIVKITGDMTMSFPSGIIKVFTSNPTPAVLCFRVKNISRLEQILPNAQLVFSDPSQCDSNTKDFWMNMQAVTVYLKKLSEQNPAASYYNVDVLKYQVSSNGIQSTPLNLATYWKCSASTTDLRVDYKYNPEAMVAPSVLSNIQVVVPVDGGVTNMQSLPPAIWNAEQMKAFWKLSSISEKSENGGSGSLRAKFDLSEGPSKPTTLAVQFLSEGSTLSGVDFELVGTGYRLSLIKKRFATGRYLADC
UniProt P09038, whole entry, looked up: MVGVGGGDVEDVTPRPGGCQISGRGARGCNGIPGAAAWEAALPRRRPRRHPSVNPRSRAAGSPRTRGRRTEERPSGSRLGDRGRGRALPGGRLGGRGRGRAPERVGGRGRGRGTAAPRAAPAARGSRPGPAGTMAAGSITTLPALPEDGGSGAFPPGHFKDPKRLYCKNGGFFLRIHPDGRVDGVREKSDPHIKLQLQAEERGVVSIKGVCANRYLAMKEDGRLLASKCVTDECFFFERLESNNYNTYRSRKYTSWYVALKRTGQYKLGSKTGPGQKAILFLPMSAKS
UniProt Q9NWM8: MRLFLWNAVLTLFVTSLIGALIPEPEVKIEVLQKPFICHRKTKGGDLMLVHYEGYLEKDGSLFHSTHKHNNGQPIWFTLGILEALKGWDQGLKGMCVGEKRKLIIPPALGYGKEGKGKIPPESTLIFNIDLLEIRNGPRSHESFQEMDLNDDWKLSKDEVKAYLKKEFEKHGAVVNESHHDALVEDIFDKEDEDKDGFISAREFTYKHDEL
UniProt Q9UK99: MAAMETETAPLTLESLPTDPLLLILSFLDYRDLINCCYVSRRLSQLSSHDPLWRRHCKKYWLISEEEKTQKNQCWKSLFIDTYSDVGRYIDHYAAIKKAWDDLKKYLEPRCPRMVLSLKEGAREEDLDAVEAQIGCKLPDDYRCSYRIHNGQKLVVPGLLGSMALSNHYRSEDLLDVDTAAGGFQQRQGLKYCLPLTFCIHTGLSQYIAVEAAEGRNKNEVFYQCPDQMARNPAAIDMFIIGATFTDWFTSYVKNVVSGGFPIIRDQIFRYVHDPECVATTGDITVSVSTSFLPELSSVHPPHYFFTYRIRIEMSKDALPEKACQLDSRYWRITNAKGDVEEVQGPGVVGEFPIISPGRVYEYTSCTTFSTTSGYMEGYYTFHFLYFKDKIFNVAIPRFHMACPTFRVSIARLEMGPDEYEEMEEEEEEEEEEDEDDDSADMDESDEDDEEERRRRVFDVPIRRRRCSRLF
UniProt Q9UIM3: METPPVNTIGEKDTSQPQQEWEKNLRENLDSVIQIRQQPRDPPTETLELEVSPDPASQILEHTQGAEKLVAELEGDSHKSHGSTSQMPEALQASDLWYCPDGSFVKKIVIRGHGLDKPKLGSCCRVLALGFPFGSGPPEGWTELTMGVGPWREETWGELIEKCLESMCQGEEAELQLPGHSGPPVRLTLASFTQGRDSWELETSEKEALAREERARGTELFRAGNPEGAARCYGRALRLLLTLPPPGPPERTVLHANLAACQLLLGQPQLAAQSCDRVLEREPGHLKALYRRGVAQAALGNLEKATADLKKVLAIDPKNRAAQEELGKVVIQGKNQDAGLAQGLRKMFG

Assays:
Assay in all cases: log2 fold change, soluble protein after heating vs DMSO (PISA); higher = thermal stabilisation; K562 lysate, 10 uM; active = over 0.2 and 3.5 SD of the protein, either way, in both replicates (recomputed)
[1] = compound: CS(=O)(=O)CCNCc1ccc(-c2ccc3ncnc(Nc4ccc(OCc5cccc(F)c5)c(Cl)c4)c3c2)o1 [lapatinib]
How it was run: (§1)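 Following dounce homogenisation of K562 pellets in PBS pH 7.4 with 1 mM MgCl2, crude extract at 1 mg/mL protein was incubated for 30 min with 10 μM compound. Aliquots were then heated for 3 min over 48°C-58°C and pooled, NP-40 was added to 0.5% at 4°C, and soluble protein was recovered as the supernatant at 21,000xg for 90 min. Channel-sum-equalised TMTpro 16plex LC-MS/MS quantified this protein. Each value, from duplicates, is a log-two fold change in thermal stability relative to solvent controls.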

[2] = compound: CS(=O)(=O)N1CCN(Cc2cc3nc(-c4cccc5[nH]ncc45)nc(N4CCOCC4)c3s2)CC1 [pictilisib]
How it was run: as §1

[3] = compound: C[C@@H](Oc1cc(-c2cnn(C3CCNCC3)c2)cnc1N)c1c(Cl)ccc(F)c1Cl [crizotinib]
How it was run: as §1

[4] = compound: C[C@H](C1=CC=C(C=C1)C(=O)NC2=C3C=CNC3=NC=C2)N
How it was run: as §1

[5] = compound: C[C@H](Nc1ncnc2nc[nH]c12)c1cc2cccc(Cl)c2c(=O)n1-c1ccccc1 [duvelisib]
How it was run: as §1

[6] = compound: Cc1cc(Nc2cc(CN3CCOCC3)c3nc(C)c(Cc4ccc(Cl)cc4F)n3n2)n[nH]1 [gandotinib]
How it was run: as §1

[7] = compound: Cc1cc(Nc2cc(N3CCN(C)CC3)nc(Sc3ccc(NC(=O)C4CC4)cc3)n2)n[nH]1 [tozasertib]
How it was run: as §1

[8] = compound: Cc1ccc(-n2nc(C(C)(C)C)cc2NC(=O)Nc2ccc(OCCN3CCOCC3)c3ccccc23)cc1 [doramapimod]
How it was run: as §1

[9] = compound: Cc1ccc(NC(=O)c2ccc(CN3CC[C@H](N(C)C)C3)c(C(F)(F)F)c2)cc1Nc1nccc(-c2cncnc2)n1 [bafetinib]
How it was run: as §1

[10] = compound: Cc1cccc(CC(=O)N2CCc3c2ccc(-c2cn(C)c4ncnc(N)c24)c3F)n1
How it was run: as §1

[11] = compound: Cc1cn(-c2cc(NC(=O)c3ccc(C)c(Nc4nccc(-c5cccnc5)n4)c3)cc(C(F)(F)F)c2)cn1 [nilotinib]
How it was run: as §1

[12] = compound: Cc1nc(Nc2n[nH]c3c2CN(C(=O)N[C@H](CN(C)C)c2ccccc2)C3(C)C)c2sccc2n1
How it was run: as §1

[13] = compound: Cc1nc(Nc2ncc(C(=O)Nc3c(C)cccc3Cl)s2)cc(N2CCN(CCO)CC2)n1 [dasatinib]
How it was run: as §1

[14] = compound: Cc1ncc(-c2ccnc(Nc3ccc(S(C)(=O)=O)cc3)n2)n1C(C)C
How it was run: as §1

[15] = compound: Cn1cc(-c2ccc3c(c2)CCN3C(=O)Cc2cccc(C(F)(F)F)c2)c2c(N)ncnc21
How it was run: as §1

[16] = compound: Cn1cc(CNCC2CCN(c3ncc(C(=O)NO)cn3)CC2)c2ccccc21 [quisinostat]
How it was run: as §1

[17] = compound: Cn1cncc1[C@@](N)(c1ccc(Cl)cc1)c1ccc2c(c1)c(-c1cccc(Cl)c1)cc(=O)n2C [tipifarnib]
How it was run: as §1

[18] = compound: NC(=O)Nc1cc(-c2cccc(F)c2)sc1C(=O)N[C@H]1CCCNC1
How it was run: as §1

[19] = compound: NC(=O)c1cnc(N[C@@H]2CCCC[C@@H]2N)nc1Nc1cccc(-n2nccn2)c1
How it was run: as §1

[20] = compound: NC1(c2ccc(-c3nc4ccn5c(=O)[nH]nc5c4cc3-c3ccccc3)cc2)CCC1
How it was run: as §1

Measured: log2 fold change

FBXL20 (UniProt Q96IG2)
inactive: [1] 0.001 | [2] -0.037 | [3] -0.028 | [4] 0 | [5] 0.021 | [6] -0.04 | [7] -0.005 | [8] 0.024 | [9] -0.082 | [10] 0.015 | [11] -0.007 | [12] 0.009 | [13] -0.015 | [14] -0.116 | [15] 0.023 | [16] -0.051 | [17] 0.023 | [18] -0.04 | [19] 0.017 | [20] 0.005

FNBP4 isoform 2 (UniProt Q8N3X1)
inactive: [1] 0.01 | [2] -0.005 | [3] 0.022 | [4] 0.014 | [5] 0.029 | [6] 0.05 | [7] -0.023 | [8] -0.001 | [9] 0.004 | [10] -0.001 | [11] -0.006 | [12] 0.011 | [13] -0.006 | [14] 0.004 | [15] 0.011 | [16] -0.07 | [17] -0.025 | [18] -0.019 | [19] 0.023 | [20] 0.019

FIGNL1 (UniProt Q6PIW4)
inactive: [1] 0 | [2] -0.03 | [3] -0.078 | [4] -0.035 | [5] 0.002 | [6] -0.071 | [7] 0.003 | [8] -0.018 | [9] -0.024 | [10] 0.007 | [11] -0.011 | [12] 0.037 | [13] -0.101 | [14] 0.054 | [15] 0.068 | [16] -0.08 | [17] -0.044 | [18] 0.035 | [19] -0.02 | [20] -0.035

FASTKD2 (UniProt Q9NYY8)
inactive: [1] -0.028 | [2] -0.001 | [3] -0.032 | [4] -0.067 | [5] 0.026 | [6] -0.049 | [7] -0.013 | [8] 0.028 | [9] -0.028 | [10] 0.05 | [11] -0.019 | [12] -0.006 | [13] -0.006 | [14] 0.016 | [15] -0.026 | [16] -0.027 | [17] -0.02 | [18] 0.049 | [19] 0.027 | [20] 0.015

FBXO9 (UniProt Q9UK97)
inactive: [1] -0.334 | [2] -0.107 | [3] -0.023 | [4] 0.08 | [5] -0.012 | [6] -0.141 | [7] 0.041 | [8] 0.044 | [9] 0 | [10] -0.104 | [11] -0.076 | [12] 0.003 | [13] 0.059 | [14] 0.02 | [15] 0.021 | [16] -0.045 | [17] -0.092 | [18] 0.177 | [19] 0.127 | [20] 0.127

FGFR1OP2 (UniProt Q9NVK5)
inactive: [1] 0.011 | [2] -0.022 | [3] 0.013 | [4] -0.019 | [5] -0.003 | [6] 0.021 | [7] -0.039 | [8] 0.04 | [9] -0.052 | [10] 0.002 | [11] 0.047 | [12] 0.005 | [13] 0.105 | [14] 0.022 | [15] 0.012 | [16] 0.023 | [17] -0.155 | [18] 0.028 | [19] 0.006 | [20] 0.072

FECH isoform 2 (UniProt P22830)
inactive: [1] -0.099 | [2] 0.64 | [3] 0.027 | [4] -0.12 | [5] -0.022 | [6] 0.418 | [7] 0 | [8] -0.015 | [9] 0.557 | [10] -0.036 | [11] 0.796 | [12] 0 | [13] 0.353 | [14] 0.364 | [15] 0.009 | [16] 0.333 | [17] -0.007 | [18] -0.013 | [19] 0.139 | [20] 0.053

FCHO2 (UniProt Q0JRZ9)
inactive: [1] -0.009 | [2] -0.039 | [3] -0.017 | [4] 0.029 | [5] 0.018 | [6] -0.055 | [7] -0.004 | [8] 0.059 | [9] 0.037 | [10] -0.006 | [11] -0.029 | [12] -0.022 | [13] 0.074 | [14] 0.03 | [15] -0.041 | [16] -0.017 | [17] -0.024 | [18] 0.001 | [19] -0.006 | [20] 0.033

FGF2 (UniProt P09038)
inactive: [1] -0.011 | [2] 0.018 | [3] -0.015 | [4] -0.067 | [5] 0.019 | [6] 0.035 | [7] 0.1 | [8] -0.031 | [9] 0.029 | [10] -0.003 | [11] 0.157 | [12] -0.031 | [13] 0.145 | [14] -0.046 | [15] 0 | [16] 0.018 | [17] 0.147 | [18] 0.022 | [19] 0.025 | [20] 0.041

FKBP14 (UniProt Q9NWM8)
inactive: [1] -0.006 | [2] -0.097 | [3] 0.009 | [4] -0.044 | [5] 0.01 | [6] 0.016 | [7] -0.011 | [8] 0.002 | [9] -0.112 | [10] -0.039 | [11] 0.119 | [12] -0.055 | [13] -0.011 | [14] 0.008 | [15] -0.053 | [16] 0.049 | [17] -0.007 | [18] -0.029 | [19] 0.031 | [20] 0.007

FCHSD1 (UniProt Q86WN1)
inactive: [1] -0.015 | [2] -0.011 | [3] 0.011 | [4] -0.069 | [5] -0.007 | [6] 0.105 | [7] 0.046 | [8] 0.073 | [9] -0.064 | [10] 0.019 | [11] 0.013 | [12] 0.048 | [13] 0.111 | [14] 0.009 | [15] 0.009 | [16] 0.089 | [17] -0.041 | [18] 0.027 | [19] -0.02 | [20] -0.009

FAM91A1 (UniProt Q658Y4)
inactive: [1] -0.021 | [2] 0.001 | [3] -0.033 | [4] 0.036 | [5] 0.014 | [6] -0.098 | [7] 0.003 | [8] 0.014 | [9] -0.054 | [10] -0.057 | [11] 0.081 | [12] 0.094 | [13] -0.026 | [14] 0.074 | [15] 0.005 | [16] -0.01 | [17] -0.095 | [18] -0.001 | [19] 0.043 | [20] -0.001

Copied from the entries so far (2 entries):
FKBP14 (UniProt Q9NWM8)
inactive: [1] -0.006 | [2] -0.097 | [3] 0.009 | [4] -0.044 | [5] 0.01 | [6] 0.016 | [7] -0.011 | [8] 0.002 | [9] -0.112 | [10] -0.039 | [11] 0.119 | [12] -0.055 | [13] -0.011 | [14] 0.008 | [15] -0.053 | [16] 0.049 | [17] -0.007 | [18] -0.029 | [19] 0.031 | [20] 0.007

FCHSD1 (UniProt Q86WN1)
inactive: [1] -0.015 | [2] -0.011 | [3] 0.011 | [4] -0.069 | [5] -0.007 | [6] 0.105 | [7] 0.046 | [8] 0.073 | [9] -0.064 | [10] 0.019 | [11] 0.013 | [12] 0.048 | [13] 0.111 | [14] 0.009 | [15] 0.009 | [16] 0.089 | [17] -0.041 | [18] 0.027 | [19] -0.02 | [20] -0.009

The list continues.

FBXO3 (UniProt Q9UK99)
inactive: [1] -0.028 | [2] -0.036 | [3] -0.02 | [4] -0.125 | [5] 0.04 | [6] -0.006 | [7] -0.068 | [8] -0.038 | [9] -0.003 | [10] 0.007 | [11] -0.027 | [12] 0.056 | [13] -0.027 | [14] 0.049 | [15] 0.034 | [16] 0.015 | [17] -0.038 | [18] 0.045 | [19] 0.008 | [20] 0.015

FANCI (UniProt Q9NVI1)
inactive: [1] -0.015 | [2] -0.034 | [3] -0.09 | [4] 0.06 | [5] 0.001 | [6] -0.199 | [7] 0.002 | [8] -0.003 | [9] -0.032 | [10] -0.011 | [11] -0.022 | [12] -0.011 | [13] -0.069 | [14] 0.028 | [15] 0.049 | [16] -0.065 | [17] 0.01 | [18] 0.061 | [19] 0.027 | [20] -0.027

FKBPL (UniProt Q9UIM3)
inactive: [1] -0.016 | [2] 0.013 | [3] -0.031 | [4] 0.068 | [5] 0.008 | [6] -0.009 | [7] 0.008 | [8] 0.067 | [9] -0.012 | [10] -0.002 | [11] 0.053 | [12] -0.029 | [13] 0.04 | [14] 0.004 | [15] -0.049 | [16] -0.023 | [17] 0.01 | [18] 0.006 | [19] 0.038 | [20] 0.022

FAT3 isoform 1 (UniProt Q8TDW7)
inactive: [1] -0.011 | [2] -0.05 | [3] -0.035 | [4] 0.127 | [5] -0.063 | [6] -0.117 | [7] -0.011 | [8] -0.001 | [9] -0.025 | [10] -0.172 | [11] -0.044 | [12] 0.043 | [13] 0.014 | [14] -0.034 | [15] 0.004 | [16] -0.028 | [17] -0.065 | [18] -0.011 | [19] -0.015 | [20] 0.035
